Measurements published in paper PMC6072501 (MedChemComm, 2017).
Some peptides are written in HELM: one residue between dots, names in brackets for other building blocks, links after the first $. The same purity stands for every peptide and may come from a single statement.

experiment: Fmoc solid-phase peptide synthesis; HBTU; PyAop for DTrp to NMePhe; details: whole synthesis, 220 nm

Final HPLC purity, > 95%:
PEPTIDE1{R.[dW].[NMePhe].[dW].L.M.[am]}$$$$V2.0
PEPTIDE1{[NMeDPhe].[dW].F.[dW].L.[am]}$$$$V2.0
PEPTIDE1{[NMeDPhe].[dW].F.[DTrp(N-tert-prenyl)].L.[am]}$$$$V2.0
